# Test results from patent US6806269B1, “2-Amino-benzoxazinones for the treatment of herpes simplex virus” (G. D. Searle & Cop, priority 1999, dated 2004).
# Chains of the proteins cited; added tags and fusions are not shown. Residues count along the entry.
# UniProt P08246, 30-267 limits assumed: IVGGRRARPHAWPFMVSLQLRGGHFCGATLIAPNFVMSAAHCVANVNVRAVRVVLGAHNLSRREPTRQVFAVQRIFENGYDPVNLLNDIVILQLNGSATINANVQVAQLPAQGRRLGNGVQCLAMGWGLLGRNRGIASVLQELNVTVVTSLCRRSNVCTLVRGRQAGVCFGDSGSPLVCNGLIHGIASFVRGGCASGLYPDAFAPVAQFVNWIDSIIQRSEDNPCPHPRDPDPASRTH
# Legend:
# [1] = biological target: Bovine pancreas α-chymotripsin (Bos taurus, UniProt P00766); experiment: Chymotripsin assay; type: biochemical; conditions: 50 μM compound; 30 minutes pre-incubation
# Description: The chymotripsin assay was modified from the method of Delmar, et al. (Anal. Biochem. 99, 316-320 (1979)). Bovine pancreas α-chymotripsin(type II, Sigma) was dissolved in 0.001 N HCl at 1 mg/ml and further diluted 1/1000 in assay buffer (0.1 M Tris, pH 7.8 containing 0.1 M CaCl2) before use. 0.75 μl of test compound in DMF (or DMF alone), 50 μl of assay buffer and 50 μl of enzyme were added to 96 wells plates, mixed and pre-incubated for 30 minutes at ambient temperature. Reaction was initiated by addition of 50 μl of 0.2 mM N-succinyl-Ala-Ala-Pro-Phe-p-nitroanilide (Sigma; 2 mM in DMSO diluted 1/10 in assay buffer before use). The increase in absorbance at 405 nm was monitored for 3 minutes with BIO-RAD model 3550 microplate-reader.
# [2] = biological target: Human leukocyte elastase (HLE) (Homo sapiens, UniProt P08246); experiment: Human leukocyte elastase assay; conditions: 50 μM compound; 30 minutes pre-incubation
# Description: Human Leukocyte Elastase Assay
# Human leukocyte elastase (HLE) (CALBIOCHEM) was dissolved in saline at 1 mg/ml and further diluted 1/10 in assay buffer (0.2 M Tris, pH 8.0) before use.
# 0.75 μl of test compound in DMF (or DMF alone), 50 μl of assay buffer and 50 μl of enzyme were added to 96 well plate, mixed and pre-incubated for 30 minutes at ambient temperature. Reaction was initiated by addition of 50 μl of 2.5 mM methoxysuccinyl-Ala-Ala-Pro-Val-p-nitroanilide (Sigma; 25 mM in DMSO diluted 1/10 in assay buffer before use). The increase in absorbance at 405 nm was monitored for 3 min. with BIO-RAD model 3550 microplate reader.
structure (smiles),measurement,setting,value
Cc1c(NC(=O)COCc2ccccc2)ccc2nc(N(C(C)C)C(C)C)oc(=O)c12,INHIBITION AT 50 μM CHYMOTRYPSIN (%),[1],28.4%
same,INHIBITION AT 50 μM HLE (%),[2],18.2%

# The match of structure and compound is tentative.
